Laboratory results from the supplement of paper PMC5949888.
Most values lie at the floor of the assay. Slopes are relative: functional sequences can read slightly below zero.

Test system: Saccharomyces cerevisiae PS128 hsf1 delta, HSF1(1-493) fusion
Assay: growth estimate (transactivation domain function in HSF1 fusion, heat-shock survival) (a.u. (slope of normalised read count over time)); higher = stronger growth at 37°C, i.e. more transactivation activity
Conditions: library: random library

Row | Substance | growth estimate
1 | KADGDGRREWYCNGAARIRM | < -0.25
2 | KADWVLMPNARGLVQVCPRW | < -0.25
3 | KAEKKVLVRVRV | < -0.25
4 | KAFISRMRFFSGNLGYLARR | < -0.25
5 | KAFR | < -0.25
6 | KAGMIKVCQFSPGFLEVDSV | < -0.25
7 | KAMGGQGTSWKLLAMRVAQQ | < -0.25
8 | KARDSSLRTSREP | < -0.25
9 | KARIRGGDSGRREHARESGR | -0.219
10 | KARRDQGVESLTT | < -0.25
11 | KASDSTHRGPPLSLGIKRRR | < -0.25
12 | KASGPG | < -0.25
13 | KATVL | < -0.25
14 | KAVHLSGQYQREERYAQILP | < -0.25
15 | KAVPQKLFGELPDLANTSTV | < -0.25
16 | KAVVSRSGNSIFGQYLGPCY | < -0.25
17 | KAWGDGRP | < -0.25
18 | KCAKAITVGCLPGIFRALDY | < -0.25
19 | KCCKGQGQLWLGISVRHQVR | < -0.25
20 | KCDDLLANIAGSDNGTYTPG | < -0.25
21 | KCGVDRQAFRRCFRISPPST | < -0.25
22 | KCILRPQ | -0.198
23 | KCLDCVLFPDLTVGRRVI | < -0.25
24 | KCLGMFRVW | < -0.25

Taken from above for reference:
Row | Substance | growth estimate
19 | KCCKGQGQLWLGISVRHQVR | < -0.25
20 | KCDDLLANIAGSDNGTYTPG | < -0.25
21 | KCGVDRQAFRRCFRISPPST | < -0.25
22 | KCILRPQ | -0.198

More entries.

Row | Substance | growth estimate
25 | KCLYCPLVSQQIPVLARRQT | < -0.25
26 | KCNEDIGSTVYMS | < -0.25
27 | KCRFPGSVI | < -0.25
28 | KCSIAMCHEHGFIVRPRVAW | < -0.25
29 | KCTKF | < -0.25
30 | KCVRVILQNSDWTS | < -0.25
31 | KCVVS | < -0.25
32 | KCYGICKARGIRSYKATTTE | < -0.25
33 | KCYSHRKKGSRGTLPQRTP | < -0.25
34 | KDAPILRRSTLIQK | < -0.25
35 | KDEEHDG | < -0.25
36 | KDEELPQAVVSFLFPDESSR | -0.189
37 | KDGPSHSEEAVRG | -0.248
38 | KDMVVNLGLISEL | < -0.25
39 | KDNKRVFGL | -0.23
40 | KDREVLNRRRDIY | < -0.25
41 | KDRPILGAKRAACSGESPMA | < -0.25
42 | KDRSMRASHTHVIIRLVGNG | < -0.25
43 | KDSRPSLGCVSSD | < -0.25
44 | KDSRSELERKFRGLPIVLLA | < -0.25
45 | KDYCTSSRNPGWVYCGETLT | < -0.25
46 | KEARA | < -0.25
47 | KECSSVSPELGLTYGVSSNW | < -0.25
48 | KECTMARHGAPVLGFFKSGF | < -0.25

Row | Substance | growth estimate
49 | KEDQLMKNSVSKRVRTLVKH | -0.246
50 | KEETWRAASSFKLSHHRNDP | < -0.25
51 | KEGLK | < -0.25
52 | KEIRHWL | < -0.25
53 | KEKRQGSKLEAAWYSRPRYR | < -0.25
54 | KEKVWSGTFTLRRTSYVKIG | -0.246
55 | KENRSRRCDS | < -0.25
56 | KERVLSRDGQWYRGRIRC | < -0.25
57 | KERVPSLCPRMG | < -0.25
58 | KESCLTAHARAL | < -0.25
59 | KESY | < -0.25
60 | KEWMTRQRSGRSNN | < -0.25
61 | KEWPALWSQAIRLVPRHAPW | < -0.25
62 | KFASVRRDNSEIYCPPASNY | < -0.25
63 | KFATLFRKGLSHPSRGFARE | < -0.25
64 | KFCPG | < -0.25
65 | KFEGFAYSRCITFGFKSTG | < -0.25
66 | KFFEG | < -0.25
67 | KFGHKGGLTSVGNRAVARRR | < -0.25
68 | KFIANPGTTGASHFGAVSVR | < -0.25
69 | KFLLRTGIQRTMQCYHLYVE | < -0.25
70 | KFRENEADVVSPNV | < -0.25
71 | KFS | < -0.25
72 | KFTNS | < -0.25
